This series in a line: Protein half-life by time course after cycloheximide inhibition of protein synthesis. The following applies: after cycloheximide (CHX); HCT116 cells. In kind it is cell-based, human.

In turn, SIRT1 FL: full length SIRT1 protein displayed a protein half-life greater than 9 h.

For the origin of these results see patent US20120178796A1, “SPLICE VARIANTS” (priority 2009, published 2012).
